This note sets out measurements from paper PMC9192632.

Amino acid sequences for entries named in this document (tags omitted).
UniProt O60488: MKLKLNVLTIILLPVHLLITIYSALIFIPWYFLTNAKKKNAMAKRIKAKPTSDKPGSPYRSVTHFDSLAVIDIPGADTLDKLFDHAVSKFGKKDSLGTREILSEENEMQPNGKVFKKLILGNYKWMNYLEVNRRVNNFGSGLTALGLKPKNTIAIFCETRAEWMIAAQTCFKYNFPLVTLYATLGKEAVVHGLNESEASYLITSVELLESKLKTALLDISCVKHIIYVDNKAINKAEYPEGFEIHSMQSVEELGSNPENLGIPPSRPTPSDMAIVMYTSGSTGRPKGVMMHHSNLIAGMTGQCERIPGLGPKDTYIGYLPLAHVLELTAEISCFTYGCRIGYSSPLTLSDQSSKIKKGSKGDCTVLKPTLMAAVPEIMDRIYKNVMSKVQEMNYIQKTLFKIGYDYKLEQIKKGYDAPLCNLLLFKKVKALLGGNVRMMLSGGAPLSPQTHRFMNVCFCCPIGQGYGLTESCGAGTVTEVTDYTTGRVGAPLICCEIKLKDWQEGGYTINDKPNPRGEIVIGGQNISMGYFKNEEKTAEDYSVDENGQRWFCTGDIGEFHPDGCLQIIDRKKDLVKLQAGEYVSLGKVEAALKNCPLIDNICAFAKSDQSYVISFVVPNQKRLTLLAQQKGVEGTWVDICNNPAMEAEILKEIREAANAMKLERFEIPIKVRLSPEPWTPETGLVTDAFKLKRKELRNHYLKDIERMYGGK
UniProt O00429: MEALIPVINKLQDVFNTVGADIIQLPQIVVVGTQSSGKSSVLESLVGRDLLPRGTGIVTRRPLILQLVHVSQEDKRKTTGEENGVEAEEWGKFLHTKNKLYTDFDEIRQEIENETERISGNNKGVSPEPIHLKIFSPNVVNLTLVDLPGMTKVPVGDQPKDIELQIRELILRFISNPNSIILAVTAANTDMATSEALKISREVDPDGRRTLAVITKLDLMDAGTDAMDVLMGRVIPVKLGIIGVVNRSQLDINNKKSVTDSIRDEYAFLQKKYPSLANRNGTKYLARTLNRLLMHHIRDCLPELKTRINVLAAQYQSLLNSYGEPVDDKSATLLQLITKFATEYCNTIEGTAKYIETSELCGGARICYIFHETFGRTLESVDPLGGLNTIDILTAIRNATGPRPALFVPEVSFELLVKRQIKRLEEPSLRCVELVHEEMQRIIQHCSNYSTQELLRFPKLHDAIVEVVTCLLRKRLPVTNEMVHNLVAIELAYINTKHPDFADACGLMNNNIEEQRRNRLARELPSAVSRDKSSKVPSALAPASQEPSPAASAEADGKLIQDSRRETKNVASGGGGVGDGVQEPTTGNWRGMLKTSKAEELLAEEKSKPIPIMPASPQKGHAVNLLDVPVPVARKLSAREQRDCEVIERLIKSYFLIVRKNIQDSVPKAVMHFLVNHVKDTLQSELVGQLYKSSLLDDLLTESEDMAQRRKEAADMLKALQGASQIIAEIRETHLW

Results are given in words; binding and its absence hold for the method and conditions named. Binding seen in cells or lysates may run through a third protein. Some binding calls cover weakened binding; strength is not graded here.

The assay concerns the target Acyl-coenzyme A (CoA) synthetase long-chain family member 4 (human (endogenous in PL1 and PG7 patient-derived glioma cells)) (UniProt O60488). Put plainly: co-IP; PL1 and PG7 cells lysed in RIPA buffer with PMSF; lysate supernatant with Acsl4 antibody (ab155282) or IgG overnight at 4 °C, protein A/G plus agarose 6 h at 4 °C; immunoblotting.

For “dynamin-related protein 1 (from UniProt O00429 1-736)”, the binding entry is given as “binds”.
